PubChem BioAssay AID602196, INSERM | 2012

Screen: 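Modifiers of cisplatin sensitivity in A549 cells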
Cell system: human A549 lung cancer cells
Knock-down reagent: siRNA pair against human genes
Time to read-out: 48 h transfection before cisplatin; time from cisplatin to read-out not stated
Conditions: cisplatin at a dose killing half of control-siRNA cells; exact dose and duration not given
Measured: 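Shift in cisplatin death relative to control siRNA, from -50 (all cells die) to +50 (no cells die); siRNAs harmful on their own scored 0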
Direction: two-siRNA summed score (-2 to +2): higher = both siRNAs protect from cisplatin killing; -2 means both sensitise; mean protection from cisplatin (shift in death) and protection from cisplatin (shift in death), siRNA C and protection from cisplatin (shift in death), siRNA D: higher = protection from cisplatin killing
Call rule: 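siRNAs harmful alone (LDH or WST-1) get 0; others get +1 for less and -1 for more cisplatin killing; genes are active when the two siRNAs give the same sign, summing to ±2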
Meaning of the calls: active = both siRNAs shift cisplatin killing the same way; inactive = no consistent shift, or siRNA harmful alone
This is an unselected part of about 23,000 reagents tested. In the full data, 455 (2%) are marked active. 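Active includes both protection and sensitisation; some change values fall well beyond the stated -50 to +50 range.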 Unmarked entries are inactive. Not given: the amount of reagent.

| gene | two-siRNA summed score (-2 to +2) | mean protection from cisplatin (shift in death) (%) | protection from cisplatin (shift in death), siRNA C (%) | protection from cisplatin (shift in death), siRNA D (%) |
| --- | --- | --- | --- | --- |
| LOC400619 | 0 | 7 | 0.8 | 13.1 |
| LOC284323 | 0 | 5.2 | 8.5 | 1.9 |
| LOC390427 | 1 | 17.7 | 18.1 | 17.3 |
| ZMIZ2 (zinc finger MIZ-type containing 2) | 0 | 7.6 | 11.2 | 4 |
| LOC441929 | 0 | 8.5 | 13.8 | 3.2 |
| PIWIL2 (piwi like RNA-mediated gene silencing 2) | 0 | 2.8 | 11.1 | -5.5 |
| APOBEC3C (apolipoprotein B mRNA editing enzyme catalytic subunit 3C) | 0 | 6.7 | 13.5 | -0.1 |
| AGO4 (argonaute RISC component 4) | 0 | 15.1 | 27.3 | 3 |
| MAP3K13 (mitogen-activated protein kinase kinase kinase 13) | -1 | -8.4 | -19.7 | 2.8 |
| LOC401525 | 0 | 6.3 | 14 | -1.5 |
| LOC441653 | 0 | 6.5 | 6.1 | 6.8 |
| LOC403312 (putative uncharacterized protein MGC39545) | 0 | 11.8 | 13 | 10.7 |
| NUP155 (nucleoporin 155) | 0 | 3.1 | 1.3 | 4.8 |
| BMS1P20 (BMS1 pseudogene 20) | 0 | 8.6 | 3 | 14.1 |
| FLJ10707 | -1 | -7.2 | -35.9 | 21.5 |
| HNF1B (HNF1 homeobox B) | 0 | -5.5 | -6.9 | -4.2 |
| RBPMS (RNA binding protein, mRNA processing factor) | 0 | -3.1 | -2.8 | -3.4 |
| CCR7 (C-C motif chemokine receptor 7) | -1 | 5.9 | -19.9 | 31.7 |
| GORASP2 (golgi reassembly stacking protein 2) | 0 | -22.5 | -17.7 | -27.3 |
| KLK11 (kallikrein related peptidase 11) | 0 | -0.3 | 5.4 | -6 |
| LOC127099 | 0 | 8.4 | 10.2 | 6.7 |
| PDZD7 (PDZ domain containing 7) | 0 | 1.1 | -7.1 | 9.3 |
| IL7R (interleukin 7 receptor) | 0 | -12.2 | -17.3 | -7.1 |
| LOC440282 | 1 | 9 | 13.2 | 4.8 |
| DDX23 (DEAD-box helicase 23) | 0 | 14.2 | 28.4 | -0.1 |
| OR2B2 (olfactory receptor family 2 subfamily B member 2) | 0 | 8 | 14.2 | 1.9 |
| LPCAT3 (lysophosphatidylcholine acyltransferase 3) | 0 | -2.7 | 5 | -10.4 |
| FMR1 (fragile X messenger ribonucleoprotein 1) | 0 | 9.6 | 9.8 | 9.4 |
| RPS10 (ribosomal protein S10) | 0 | 32.6 | 27 | 38.2 |
| CDC42BPA (CDC42 binding protein kinase alpha) | 1 | 18.1 | 32.6 | 3.6 |
| PPA2 (inorganic pyrophosphatase 2) | 1 | 11.1 | 13.2 | 9 |
| LOC401068 (retired record) | 0 | 17.1 | 28.1 | 6 |
| THEM4 (thioesterase superfamily member 4) | 0 | 0.1 | 2.9 | -2.7 |
| TBC1D1 (TBC1 domain family member 1) | -1 | -7.4 | -16.3 | 1.4 |
| RAB15 (RAB15, member RAS oncogene family) | 0 | 3.6 | 0.5 | 6.8 |

Part of the list above, reformatted:
gene | two-siRNA summed score (-2 to +2) | mean protection from cisplatin (shift in death) (%) | protection from cisplatin (shift in death), siRNA C (%) | protection from cisplatin (shift in death), siRNA D (%)
LOC441929 | 0 | 8.5 | 13.8 | 3.2
PIWIL2 (piwi like RNA-mediated gene silencing 2) | 0 | 2.8 | 11.1 | -5.5
APOBEC3C (apolipoprotein B mRNA editing enzyme catalytic subunit 3C) | 0 | 6.7 | 13.5 | -0.1

Additional reagents follow.
| gene | two-siRNA summed score (-2 to +2) | mean protection from cisplatin (shift in death) (%) | protection from cisplatin (shift in death), siRNA C (%) | protection from cisplatin (shift in death), siRNA D (%) |
| --- | --- | --- | --- | --- |
| OAS2 (2'-5'-oligoadenylate synthetase 2) | 0 | 1.4 | -5.2 | 8 |
| UBQLN1 (ubiquilin 1) | 0 | 7.4 | -1.1 | 15.9 |
| LOC401676 (retired record) | 2 (active) | 13.5 | 13.5 | 13.5 |
| CALR3 (calreticulin 3) | -1 | -3.8 | -11.8 | 4.2 |
| IL21 (interleukin 21) | -1 | -24.2 | -15.4 | -33 |
| GABRA4 (gamma-aminobutyric acid type A receptor subunit alpha4) | 1 | 10.1 | 16.8 | 3.4 |
| LOC391053 | 0 | 10.3 | 8 | 12.5 |
| PPP1R14A (protein phosphatase 1 regulatory inhibitor subunit 14A) | 0 | 15 | 16.9 | 13.2 |
| BCL9 (BCL9 transcription coactivator) | 1 | 11.2 | 11.5 | 10.8 |
| SAFB2 (scaffold attachment factor B2) | 0 | 0 | -5.5 | 5.5 |
| NEU4 (neuraminidase 4) | 1 | 17.9 | 23.7 | 12.1 |
| BACC1 (BPTF associated chromatin complex component 1) | 0 | 2.4 | 5.4 | -0.6 |
| MAPK14 (mitogen-activated protein kinase 14) | -1 | 3.9 | 19.6 | -11.8 |
| NTPCR (nucleoside-triphosphatase, cancer-related) | 0 | 6.5 | 9.9 | 3 |
| MRS2 (magnesium transporter MRS2) | 0 | 2.4 | 3.8 | 0.9 |
| FLJ30092 | 1 | 9.6 | 1 | 18.1 |
| ELOA (elongin A) | 0 | 0.7 | 2.8 | -1.3 |
| PRAMEF1 (PRAME family member 1) | 0 | -1.2 | -13 | 10.6 |
| GPATCH1 (G-patch domain containing 1) | 0 | 12 | 0.3 | 23.7 |
| MYO10 (myosin X) | 0 | 16.8 | 13 | 20.6 |
| COL5A1 (collagen type V alpha 1 chain) | 0 | -8.5 | -3 | -13.9 |
| PPARD (peroxisome proliferator activated receptor delta) | -1 | -18.4 | -46.9 | 10.2 |
